Measured values from paper PMC4823829.

Amino acid sequences for entries named in this document (tags omitted).
UniProt Q94AH6: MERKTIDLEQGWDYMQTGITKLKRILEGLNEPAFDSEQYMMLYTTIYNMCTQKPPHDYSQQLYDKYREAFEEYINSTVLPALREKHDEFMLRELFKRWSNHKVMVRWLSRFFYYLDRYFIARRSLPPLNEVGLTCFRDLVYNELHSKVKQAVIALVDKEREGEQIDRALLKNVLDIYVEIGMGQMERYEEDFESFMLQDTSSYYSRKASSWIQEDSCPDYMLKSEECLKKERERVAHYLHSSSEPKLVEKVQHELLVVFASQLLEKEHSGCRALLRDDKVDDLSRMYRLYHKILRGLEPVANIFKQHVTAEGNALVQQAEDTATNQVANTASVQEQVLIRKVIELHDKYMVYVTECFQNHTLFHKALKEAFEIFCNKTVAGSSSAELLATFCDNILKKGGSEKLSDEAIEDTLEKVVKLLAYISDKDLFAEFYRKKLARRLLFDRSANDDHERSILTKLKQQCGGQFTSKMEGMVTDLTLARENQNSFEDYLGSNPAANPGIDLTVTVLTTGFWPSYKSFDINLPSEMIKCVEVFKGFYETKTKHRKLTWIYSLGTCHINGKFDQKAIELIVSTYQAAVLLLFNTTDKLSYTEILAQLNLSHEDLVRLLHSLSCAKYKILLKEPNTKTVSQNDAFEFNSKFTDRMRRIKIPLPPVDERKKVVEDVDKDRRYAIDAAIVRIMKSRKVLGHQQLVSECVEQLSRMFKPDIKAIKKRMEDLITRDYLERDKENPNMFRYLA
UniProt Q39255: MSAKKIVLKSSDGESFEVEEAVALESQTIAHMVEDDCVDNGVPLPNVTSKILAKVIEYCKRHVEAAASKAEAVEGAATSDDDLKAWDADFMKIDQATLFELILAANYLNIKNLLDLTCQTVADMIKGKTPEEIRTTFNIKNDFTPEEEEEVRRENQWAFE
UniProt Q7XA73: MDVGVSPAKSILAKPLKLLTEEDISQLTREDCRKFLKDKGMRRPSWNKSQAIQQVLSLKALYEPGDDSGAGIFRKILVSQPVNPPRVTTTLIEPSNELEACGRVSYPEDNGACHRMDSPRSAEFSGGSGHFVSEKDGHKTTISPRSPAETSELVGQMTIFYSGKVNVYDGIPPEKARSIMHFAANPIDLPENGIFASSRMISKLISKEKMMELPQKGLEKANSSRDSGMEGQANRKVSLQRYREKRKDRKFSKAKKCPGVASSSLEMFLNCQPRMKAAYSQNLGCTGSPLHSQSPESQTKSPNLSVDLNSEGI

target: T1, GFP-SAP (STERILE APETALA) from 35S:GFP-SAP transgenic Arabidopsis plants (Arabidopsis thaliana) (UniProt Q9FKH1); assay: affinity purification with mass spectrometry; total proteins of 35S:GFP-SAP transgenic Arabidopsis plants incubated with GFP-Trap-A agarose beads 1 h at 4 °C; 50 mM Tris-HCl pH 7.5, 150 mM NaCl, 20% glycerol, Triton X-100, 1 mM EDTA; LC-MS/MS
T1 sequence: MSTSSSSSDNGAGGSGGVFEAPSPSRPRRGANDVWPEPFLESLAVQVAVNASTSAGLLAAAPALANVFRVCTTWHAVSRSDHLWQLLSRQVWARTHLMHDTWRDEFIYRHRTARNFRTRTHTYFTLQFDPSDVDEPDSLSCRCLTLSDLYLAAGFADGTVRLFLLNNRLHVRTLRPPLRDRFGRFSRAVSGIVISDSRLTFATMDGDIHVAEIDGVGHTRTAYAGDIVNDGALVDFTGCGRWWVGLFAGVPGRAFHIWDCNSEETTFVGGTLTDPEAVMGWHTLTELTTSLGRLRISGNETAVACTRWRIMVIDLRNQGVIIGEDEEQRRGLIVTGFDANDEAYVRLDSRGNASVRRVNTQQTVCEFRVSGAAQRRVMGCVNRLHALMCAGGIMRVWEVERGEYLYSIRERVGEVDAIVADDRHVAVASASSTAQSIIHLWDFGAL

| Substance | binding |
| --- | --- |
| CUL1 (Cullin1), endogenous in Arabidopsis plants (from UniProt Q94AH6 1-738) | binds |
| ASK1, endogenous in Arabidopsis plants (from UniProt Q39255 1-160) | binds |
| PEAPOD1 (PPD1), endogenous in Arabidopsis plants (from UniProt Q7XA73 1-313) | binds |

Results are given in words; binding and its absence hold for the method and conditions named. In cells and extracts the contact can be indirect. Here binding means that the protein was enriched with, or labelled near, the bait; the list need not be complete. Where a sequence is shown, tags or fusion partners need not be part of it.
